Experimental data: publication PMC2194165
Results are given in words; binding and its absence hold for the method and conditions named. For some of these results: In cells and extracts the contact can be indirect. Some binding calls cover weakened binding; strength is not graded here. For some of these results: Where a sequence is shown, tags or fusion partners need not be part of it.

Sequences of proteins named here, by UniProt entry; tags and fusion partners are left off. A change or cut given only in a name is not applied to a line headed by its entry.
UniProt O75716: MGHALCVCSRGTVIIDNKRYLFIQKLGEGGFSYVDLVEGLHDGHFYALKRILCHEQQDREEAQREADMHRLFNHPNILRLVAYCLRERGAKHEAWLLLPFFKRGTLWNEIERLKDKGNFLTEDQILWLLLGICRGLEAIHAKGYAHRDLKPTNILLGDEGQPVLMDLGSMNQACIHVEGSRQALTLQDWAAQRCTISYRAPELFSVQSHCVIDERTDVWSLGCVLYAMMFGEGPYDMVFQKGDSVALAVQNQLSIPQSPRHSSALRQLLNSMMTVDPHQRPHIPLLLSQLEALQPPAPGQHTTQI

Legend:
[1] = target: T1, GST-DRG1 (developmentally regulated GTP binding protein 1, full length) (UniProt Q9Y295); test: pull-down; GST-DRG1 saturated with beta-S-GDP or gamma-S-GTP, loaded onto a glutathione-Sepharose column, washed stringently, eluted with glutathione; western blot with MPSK1 antiserum
T1 sequence: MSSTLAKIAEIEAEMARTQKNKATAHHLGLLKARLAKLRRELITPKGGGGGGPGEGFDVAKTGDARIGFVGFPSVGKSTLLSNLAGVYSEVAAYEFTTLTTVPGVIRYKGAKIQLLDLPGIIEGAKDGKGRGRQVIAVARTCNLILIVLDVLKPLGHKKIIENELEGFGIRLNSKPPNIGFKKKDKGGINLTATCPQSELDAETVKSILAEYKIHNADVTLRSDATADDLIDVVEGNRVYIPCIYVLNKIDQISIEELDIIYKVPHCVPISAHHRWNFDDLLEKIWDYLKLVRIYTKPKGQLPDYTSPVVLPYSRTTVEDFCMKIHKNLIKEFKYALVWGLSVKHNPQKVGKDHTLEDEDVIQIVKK

[2] = target: T1, GST-DRG1 (developmentally regulated GTP binding protein 1, full length); test: pull-down; MPSK1 expressed from NIH 3T3 cells copurified with GST-DRG1; data not shown
[3] = target: MPSK1 (residues 13-305), N-terminal 6x His tag (human) (UniProt O75716); test: pull-down; immobilized His-tagged MPSK1 with six C-terminal truncation variants of DRG1; data not shown
[4] = target: MPSK1 (residues 13-305), N-terminal 6x His tag (human) (UniProt O75716); test: pull-down; purified His-MPSK1 with GST-DRG1 or DRG1-N65 loaded onto a Ni-NTA column, washed stringently, eluted with 200 mM imidazole; SDS-PAGE; both purified

With “MPSK1 (residues 13-305), N-terminal 6x His tag (from UniProt O75716 13-305) (domain or fragment)” the binding [1] was “binds”.

In the case of “MPSK1 expressed in NIH 3T3 cells (from UniProt O75716 1-305)”, the binding [2] is reported as “binds”.

B1: DRG1-N65 (region 1-65 of DRG1) (domain or fragment, UniProt Q9Y295 1-65)
chain: MSSTLAKIAEIEAEMARTQKNKATAHHLGLLKARLAKLRRELITPKGGGGGGPGEGFDVAKTGDA
B1 was tested, and the binding [3] was “binds” and the binding [4] was “binds”.
